# Experimental data reported in article PMC5009372.
# These are yes or no findings as the source states them, for the method shown.
# Target: T1, YL1 (YELLOW LEAF 1), full-length, in pGBKT7 (rice (Oryza sativa)) (UniProt Q0E3V2)
# T1 sequence: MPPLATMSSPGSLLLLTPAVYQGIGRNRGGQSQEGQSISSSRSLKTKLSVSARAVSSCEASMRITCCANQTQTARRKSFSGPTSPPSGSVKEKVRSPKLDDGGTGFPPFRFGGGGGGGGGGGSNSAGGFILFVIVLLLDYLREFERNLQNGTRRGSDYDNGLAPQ
# Test: two-hybrid; Matchmaker Gold system (Clontech); YL1 in pGBKT7 (bait), subunits in pGADT7 (prey); S. cerevisiae AH109; growth on SD/-Ade/-His/-Leu/-Trp medium containing X-α-gal
substance,measurement,value
"Cyt f of the Cyt b6/f complex, in pGADT7",binding,no binding
